PubChem BioAssay AID1259405 – NCATS – 2018

- Screen: 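Knock-downs that lift recombinant protein yield in hamster ovary cells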 (primary screen)
- System: Chinese hamster CHO-K1 ovary cells with stable secreted eGFP expression
- Knock-down reagent: single siRNA against mouse genes, 0.8 pmol siRNA per well (2 µl of 400 nM stock)
- Timing: 3 days
- Measured: 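Per-well intracellular GFP measured by laser scanning cytometry, plus viability from ATP luminescence, each relative to plate median of non-targeting control wells, in %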
- Scale: GFP, % of control: higher = more GFP per well, higher productivity; viability (ATP), % of control: higher = more viable cells (more ATP)
- Hit rule: 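Called active when intracellular GFP, relative to negative control, is at or above 120%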
The whole screen tested about 50,000 reagents; shown is an unselected part. About 4,000 of them (8%) count as active. 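Mouse siRNA library applied to hamster cells; one well for each siRNA.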 The numbers tell different reagents against one gene apart.

{"gene knocked down": "Fmod (fibromodulin)", "reagent": 1, "GFP, % of control": 125, "viability (ATP), % of control": 116, "activity call": "active"}
{"gene knocked down": "Fmod (fibromodulin)", "reagent": 2, "GFP, % of control": 62.7, "viability (ATP), % of control": 60.7, "activity call": "inactive"}
{"gene knocked down": "Fmod (fibromodulin)", "reagent": 3, "GFP, % of control": 107, "viability (ATP), % of control": 65.1, "activity call": "inactive"}
{"gene knocked down": "Sgca (sarcoglycan, alpha (dystrophin-associated glycoprotein))", "reagent": 1, "GFP, % of control": 77.8, "viability (ATP), % of control": 102, "activity call": "inactive"}
{"gene knocked down": "Sgca (sarcoglycan, alpha (dystrophin-associated glycoprotein))", "reagent": 2, "GFP, % of control": 79, "viability (ATP), % of control": 100, "activity call": "inactive"}
{"gene knocked down": "Sgca (sarcoglycan, alpha (dystrophin-associated glycoprotein))", "reagent": 3, "GFP, % of control": 61.6, "viability (ATP), % of control": 68, "activity call": "inactive"}
{"gene knocked down": "Glis1 (GLIS family zinc finger 1)", "reagent": 1, "GFP, % of control": 144, "viability (ATP), % of control": 113, "activity call": "active"}
{"gene knocked down": "Glis1 (GLIS family zinc finger 1)", "reagent": 2, "GFP, % of control": 0.358, "viability (ATP), % of control": 169, "activity call": "inactive"}
{"gene knocked down": "Cimip2a (ciliary microtubule inner protein 2A)", "reagent": 1, "GFP, % of control": 68.8, "viability (ATP), % of control": 67.4, "activity call": "inactive"}
{"gene knocked down": "Cimip2a (ciliary microtubule inner protein 2A)", "reagent": 2, "GFP, % of control": 81.5, "viability (ATP), % of control": 68.7, "activity call": "inactive"}
{"gene knocked down": "Cimip2a (ciliary microtubule inner protein 2A)", "reagent": 3, "GFP, % of control": 91.9, "viability (ATP), % of control": 104, "activity call": "inactive"}
{"gene knocked down": "Ccdc125 (coiled-coil domain containing 125)", "reagent": 1, "GFP, % of control": 58.9, "viability (ATP), % of control": 37.8, "activity call": "inactive"}
{"gene knocked down": "Ccdc125 (coiled-coil domain containing 125)", "reagent": 2, "GFP, % of control": 82, "viability (ATP), % of control": 98.8, "activity call": "inactive"}
{"gene knocked down": "Ccdc125 (coiled-coil domain containing 125)", "reagent": 3, "GFP, % of control": 137, "viability (ATP), % of control": 121, "activity call": "active"}
{"gene knocked down": "Mfn2 (mitofusin 2)", "reagent": 1, "GFP, % of control": 112, "viability (ATP), % of control": 90.6, "activity call": "inactive"}
{"gene knocked down": "Mfn2 (mitofusin 2)", "reagent": 2, "GFP, % of control": 24.9, "viability (ATP), % of control": 34.7, "activity call": "inactive"}
{"gene knocked down": "Mfn2 (mitofusin 2)", "reagent": 3, "GFP, % of control": 95.3, "viability (ATP), % of control": 84.8, "activity call": "inactive"}

Reformatted: 3 of the entries above
gene knocked down | reagent | GFP, % of control | viability (ATP), % of control | activity call
Fmod (fibromodulin) | 2 | 62.7 | 60.7 | inactive
Fmod (fibromodulin) | 3 | 107 | 65.1 | inactive
Sgca (sarcoglycan, alpha (dystrophin-associated glycoprotein)) | 1 | 77.8 | 102 | inactive
